PubChem BioAssay AID743121, NCATS, 2013

- Screen: 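Genes whose silencing strengthens cell killing by camptothecin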 (primary screen)
- Cells: MDA-MB-231 cells, a human breast cancer line
- Reagent: single siRNA against human genes, 20 nM siRNA (0.8 pmol per well)
- Timing: 120 h (drug added 48 h after transfection, read 72 h later)
- Challenge: camptothecin 20 nM (about EC30) for 72 h; vehicle 0.1% DMSO in parallel plates
- Measured: 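Cell viability by ATP luminescence (CellTiter-Glo) as % of non-targeting siRNA wells, and the log2 ratio of viability without drug over viability with camptothecin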
- Direction: log2 vehicle/camptothecin viability: higher = stronger sensitisation to camptothecin
- Call rule: 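Each gene scored by redundant siRNA activity (RSA) over its individual siRNA ratios; a gene is called active at p < 0.001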
Shown is one part, drawn at random, of about 26,000 deposited reagents. In the full data, 167 (0.63%) got an active call. 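Calls are per gene from RSA p-values that are not deposited; an individual active-marked siRNA can sensitise only weakly.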 Unmarked entries are inactive. Reagents against one gene are numbered here. Further read-outs or replicates are left out here.

Gene	reagent no.	log2 vehicle/camptothecin viability
BRPF3 (bromodomain and PHD finger containing 3)	1	-0.371
BRPF3 (bromodomain and PHD finger containing 3)	2	0.0133
BRPF3 (bromodomain and PHD finger containing 3)	3	-0.433
BRPF3 (bromodomain and PHD finger containing 3)	4	-0.84
DKK2 (dickkopf Wnt signaling pathway inhibitor 2)	1	-0.167
DKK2 (dickkopf Wnt signaling pathway inhibitor 2)	2	0.0771
DKK2 (dickkopf Wnt signaling pathway inhibitor 2)	3	0.0608
DKK2 (dickkopf Wnt signaling pathway inhibitor 2)	4	0.469
NPAS2 (neuronal PAS domain protein 2)	1	0.289
NPAS2 (neuronal PAS domain protein 2)	2	-0.0242
NPAS2 (neuronal PAS domain protein 2)	3	-0.145
NPAS2 (neuronal PAS domain protein 2)	4	-0.141
MAK (male germ cell associated kinase)	1	-0.22
MAK (male germ cell associated kinase)	2	0.0119
MAK (male germ cell associated kinase)	3	0.699
MAK (male germ cell associated kinase)	4	-0.556
PMEPA1 (prostate transmembrane protein, androgen induced 1)	1	-0.173
PMEPA1 (prostate transmembrane protein, androgen induced 1)	2	-0.949
PMEPA1 (prostate transmembrane protein, androgen induced 1)	3	-0.303
PMEPA1 (prostate transmembrane protein, androgen induced 1)	4	-0.19
BDH1 (3-hydroxybutyrate dehydrogenase 1)	1	-0.00998
BDH1 (3-hydroxybutyrate dehydrogenase 1)	2	-0.542
BDH1 (3-hydroxybutyrate dehydrogenase 1)	3	-0.0202
SPRYD7 (SPRY domain containing 7)	1	0.0259
SPRYD7 (SPRY domain containing 7)	2	0.0357
SPRYD7 (SPRY domain containing 7)	3	0.0278
SPRYD7 (SPRY domain containing 7)	4	0.349
TULP4 (TUB like protein 4)	1	-0.125
TULP4 (TUB like protein 4)	2	-0.47
TULP4 (TUB like protein 4)	3	-0.0843
TULP4 (TUB like protein 4)	4	0.535
NPNT (nephronectin)	1	-1.39
NPNT (nephronectin)	2	-0.327
NPNT (nephronectin)	3	-0.175
NPNT (nephronectin)	4	-0.00107
PLA2G2C (phospholipase A2 group IIC)	1	-0.472
PLA2G2C (phospholipase A2 group IIC)	2	-0.0411
PLA2G2C (phospholipase A2 group IIC)	3	0.132
CPD (carboxypeptidase D)	1	-0.259
CPD (carboxypeptidase D)	2	-0.0398
CPD (carboxypeptidase D)	3	-0.241
CPD (carboxypeptidase D)	4	-0.0969
FSD1 (fibronectin type III and SPRY domain containing 1)	1	-0.153
FSD1 (fibronectin type III and SPRY domain containing 1)	2	-0.922
FSD1 (fibronectin type III and SPRY domain containing 1)	3	-0.107
ATRAID (all-trans retinoic acid induced differentiation factor)	1	-0.525
ATRAID (all-trans retinoic acid induced differentiation factor)	2	-0.302
ATRAID (all-trans retinoic acid induced differentiation factor)	3	0.116
LRRK2 (leucine rich repeat kinase 2)	1	-0.0186
LRRK2 (leucine rich repeat kinase 2)	2	-0.148
LRRK2 (leucine rich repeat kinase 2)	3	0.28
LRRK2 (leucine rich repeat kinase 2)	4	-0.249
GSK3B (glycogen synthase kinase 3 beta)	1	-0.168
GSK3B (glycogen synthase kinase 3 beta)	2	-0.337
GSK3B (glycogen synthase kinase 3 beta)	3	0.166
GSK3B (glycogen synthase kinase 3 beta)	4	-0.183
RPL35 (ribosomal protein L35)	1	-0.591
RPL35 (ribosomal protein L35)	2	0.181
RPL35 (ribosomal protein L35)	3	-0.579
POLI (DNA polymerase iota)	1	0.103
POLI (DNA polymerase iota)	2	-0.446
POLI (DNA polymerase iota)	3	-0.16
FBXL3 (F-box and leucine rich repeat protein 3)	1	-0.00146
FBXL3 (F-box and leucine rich repeat protein 3)	2	-0.372
FBXL3 (F-box and leucine rich repeat protein 3)	3	0.625
FBXL3 (F-box and leucine rich repeat protein 3)	4	-0.209
SLC24A1	1	-0.0266
SLC24A1	2	-0.357
SLC24A1	3	-0.649
SLC24A1	4	-0.305
PDGFRL (platelet derived growth factor receptor like)	1	-0.51
PDGFRL (platelet derived growth factor receptor like)	2	-0.257
PDGFRL (platelet derived growth factor receptor like)	3	0.222
PDGFRL (platelet derived growth factor receptor like)	4	0.727
SETDB2 (SET domain bifurcated histone lysine methyltransferase 2)	1	-0.206
SETDB2 (SET domain bifurcated histone lysine methyltransferase 2)	2	-0.00204
SETDB2 (SET domain bifurcated histone lysine methyltransferase 2)	3	0.0208
SETDB2 (SET domain bifurcated histone lysine methyltransferase 2)	4	-0.236
MMUT (methylmalonyl-CoA mutase)	1	-0.401
MMUT (methylmalonyl-CoA mutase)	2	-0.0328
MMUT (methylmalonyl-CoA mutase)	3	0.663
MMUT (methylmalonyl-CoA mutase)	4	0.262
TRIM16 (tripartite motif containing 16)	1	-0.409
TRIM16 (tripartite motif containing 16)	2	0.983
TRIM16 (tripartite motif containing 16)	3	-0.163
TRIM16 (tripartite motif containing 16)	4	-0.408
TRIM16 (tripartite motif containing 16)	5	-0.0689

14 entries from above, reformatted:
| Gene | reagent no. | log2 vehicle/camptothecin viability |
| --- | --- | --- |
| ATRAID (all-trans retinoic acid induced differentiation factor) | 2 | -0.302 |
| ATRAID (all-trans retinoic acid induced differentiation factor) | 3 | 0.116 |
| LRRK2 (leucine rich repeat kinase 2) | 1 | -0.0186 |
| LRRK2 (leucine rich repeat kinase 2) | 2 | -0.148 |
| LRRK2 (leucine rich repeat kinase 2) | 3 | 0.28 |
| LRRK2 (leucine rich repeat kinase 2) | 4 | -0.249 |
| GSK3B (glycogen synthase kinase 3 beta) | 1 | -0.168 |
| GSK3B (glycogen synthase kinase 3 beta) | 2 | -0.337 |
| GSK3B (glycogen synthase kinase 3 beta) | 3 | 0.166 |
| GSK3B (glycogen synthase kinase 3 beta) | 4 | -0.183 |
| RPL35 (ribosomal protein L35) | 1 | -0.591 |
| RPL35 (ribosomal protein L35) | 2 | 0.181 |
| RPL35 (ribosomal protein L35) | 3 | -0.579 |
| POLI (DNA polymerase iota) | 1 | 0.103 |
